These are yes or no findings as the source states them, for the method shown. Some entries that bind do so weakly or less than the wild type.
Experiments:
[1] = biological target: KIR3DL2 on fresh Sezary Syndrome cells of patients (human) (UniProt P43630); assay: flow cytometry on whole blood of Sezary Syndrome patient, hybridoma supernatant + GAM-PE
[2] = biological target: KIR3DL2 at the surface of HUT78 Sezary Syndrome cell line (human) (UniProt P43630); assay: fluoro-microscopy on HUT78 cells, 10 µg/ml antibody, 1H at 4° C.
[3] = biological target: domain 1-2 KIR3DL2 polypeptide on transfected HEK cells (Homo Sapiens) (UniProt P43630); assay: flow cytometry on transfected HEK-293T cells, 5 µg/ml antibody
[4] = biological target: KIR3DL2 at the surface of HUT78 Sezary Syndrome cell line (human) (UniProt P43630); assay: flow cytometry on the HUT78 Sezary cell line (secondary screen)
[5] = biological target: KIR3DL2 on fresh Sezary Syndrome cells of patients (human) (UniProt P43630); assay: flow cytometry of whole blood of a Sezary Syndrome patient, antibody + GaM-PE against CD4
[6] = biological target: NK cells, including normal KIR3DL2+ NK cells (Homo sapiens) (UniProt P43630); assay: as above
[7] = biological target: domain 1-2 KIR3DL2 polypeptide on transfected HEK cells (Homo Sapiens) (UniProt P43630); assay: flow cytometry on transfected HEK cells (legend of FIG. 2)
[8] = substrate: PNO (Homo sapiens) (UniProt P43630); assay: flow cytometry on the PNO Sezary cell line (secondary screen)
[9] = biological target: KIR3DL2 at the surface of HUT78 Sezary Syndrome cell line (human) (UniProt P43630); assay: flow cytometry competition on HUT78 cells; naked antibody titrated against 15C11-PE (5 µg/ml)
[10] = biological target: KIR3DL2 mutant 5 (P66T) (human) (UniProt P43630); assay: flow cytometry on HEK-293T cells transfected with the mutant
[11] = biological target: KIR3DL2 at the surface of HUT78 Sezary Syndrome cell line (human) (UniProt P43630); assay: flow cytometry competition against 15C11-PE
[12] = biological target: KIR3DL2 at the surface of HUT78 Sezary Syndrome cell line (human) (UniProt P43630); assay: flow cytometry competition

Sequences of proteins named here, by UniProt entry; tags and fusion partners are left off. A change or cut given only in a name is not applied to a line headed by its entry. Residues count along the entry.
UniProt P43630, residues 22-455: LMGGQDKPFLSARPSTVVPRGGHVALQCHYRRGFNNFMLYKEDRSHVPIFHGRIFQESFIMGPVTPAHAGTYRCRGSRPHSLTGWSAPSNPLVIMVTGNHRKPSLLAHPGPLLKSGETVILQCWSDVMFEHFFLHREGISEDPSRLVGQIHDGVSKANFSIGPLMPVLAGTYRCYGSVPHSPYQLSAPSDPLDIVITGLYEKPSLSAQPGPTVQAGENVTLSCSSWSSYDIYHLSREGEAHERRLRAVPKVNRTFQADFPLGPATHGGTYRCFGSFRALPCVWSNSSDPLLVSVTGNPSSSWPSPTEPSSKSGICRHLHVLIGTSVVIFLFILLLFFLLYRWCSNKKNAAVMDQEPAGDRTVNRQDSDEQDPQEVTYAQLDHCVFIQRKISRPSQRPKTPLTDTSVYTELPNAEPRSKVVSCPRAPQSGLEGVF

binding [1]	binding [2]	binding [3]	binding [4]	binding [5]	binding [6]	binding [7]	binding [8]	binding [9]	binding [10]	binding [11]	binding [12]	Binder
binds	binds	binds	binds	binds	binds	binds	binds	binds				antibody 15C11 (antibody, mouse IgG2a, V domains shown) VH: EVKLEESGGGLVQPGGSMKLSCAASGFTFSDAWMDWVRQSPEKGLEWVAEIRSKANNHATYYAESVKGRFTISRDDSKSSVYLRMNSLRAEDTGIYYCTGGYYPVYWGQGTLVTVSA VL: DIQMTQSPSSLSASLGGKVTITCKASQDINKNIAWYQHKPGKGPRLLIHYTSTLQPGFPSRFSGSGSGRDYSFSISNLEPEDLATYYCLQYDNLLTFGGGTKLEIK
binds	binds	binds	binds	binds	binds	binds	binds	binds	binds	binds		antibody 19H12 (antibody, mouse IgG2b, V domains shown) VH: QIQLVQSGPELKKPGETVKISCKASGYTFTNFGMNWVKQAPGKGLKWMGWINTYTGEPTYADDFKGRFAFSLETSASTAYLQINNLKNEDMATYFCARNGNFGYYFDYWGQGTTLTVSS VL: DVLMTQTPLSLPVSLGDQASFSCRSSQNIVHSNGNTYLEWYLQKPGQSPSLLIYKVSNRFSGVPDRFSGSGSGTDFTLKITRVEAEDLGVYYCFQGSHVPFTFGSGTKLEIK
binds	binds								binds		binds	antibody 12B11 (antibody, V domains shown) VH: QLVQSGPELKNPGETVKISCKASGYTFTNYGMNWVKQAPGKGLKWMGWINTYTGEPTYADDFKGRFAFSLETSASTAYLQINNLKNEDTATYFCAHGPWLAYWGQGTLVTVS VL: DIKMTQSPSSMYASLGERVTITCKASQDINVYLSWFQQKPGKSPKTLIYRAIRLVDGVPSRFSGSGSGQDYSLTISSLDYEDMGIYYCLQYDELPYTFGGGTKLEIE
